The structures appear in SMILES notation. The list shows a part of the results. Further columns of the screen follow, without active or inactive calls. Compounds called inactive in the main read-out are mostly missing here. Words in brackets tell the shape of the fitted curve; partial curves, single points and poor fits give uncertain potencies.

For 17 compounds, cell number change and AC50 results are on record in PubChem BioAssay AID2685 (National Center for Advancing Translational Sciences (NCATS), 2010).

The nature of this assay: qHTS Assay for Lipid Storage Modulators in Drosophila S3 Cells.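 For cell number change: cells counted by Cell Tracker Red CMTPX staining in the red channel.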 The following applies: BODIPY lipid droplet fluorescence, 18-24 h; for cell number change: measured here: cell count max response, cells fed with added oleic acid. A digest of the protocol: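 Laser-scanning cytometry quantifies lipid droplet accumulation (500–530 nm total intensity; droplet/cell object ratio) in oleic acid-fed (400 uM added) Drosophila S3 cells treated with a concentration series. 20 uM Triacsin C defined 100% inhibition.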
A general note: qHTS replaces the single test concentration by a dilution series.

The mark [1] stands for this setting: measured here: lipid fluorescence (Fed channel) AC50, cells fed with added oleic acid.
Where [2] appears, read: measured here: cell number channel AC50, cells fed with added oleic acid.

As a reminder, the AC50 is the concentration giving half of the maximal activity seen. Consider `CN1CCC(OC(=O)C2c3ccccc3Oc3ccccc32)CC1`, for which the cell number change is 0.897%. Besides, the AC50 under setting [1] was 23.1 µM [falling, single point].
For `CN(C)c1nc(N(C)C)nc(N(C#N)CCCl)n1`, the cell number change is -36.7%. In addition, the AC50 under setting [2] is 32.6 µM [falling, single point].
As for `COC(=O)C1=C(c2ccc(F)cc2F)C[C@@H]2CC[C@H]1N2C(=O)N1CCCC1`, the cell number change is -13.2%.
For the compound `CCOC(=O)c1c(C)n(COCCO)c2ccc(O)cc12`, the cell number change is -12.7%. For the same compound, the AC50 under setting [1] is 5.8 µM [rising, partial curve, poor fit].
Regarding `CCn1c(O)c(C(=O)CC2NCCc3ccccc32)c(=O)n(CC)c1=S` (configuration not stated), the cell number change is -0.203%. Besides, the AC50 under setting [1] was 0.366 µM [rising, partial curve].
As for `Cc1cc(OC(=O)CCNC(=O)OC(C)(C)C)c2c3c(c(=O)oc2c1)CCC3`, the cell number change is -19.3%. Moreover, under setting [1], the AC50 is 16.4 µM [falling, single point].
`COc1cccc(N2CCN(Cc3cccc(Cl)c3)CC2)c1`: the cell number change was -8.16%. Besides, the AC50 under setting [1] was 0.00461 µM [rising, full curve, poor fit].
For the compound `Cc1cc(C(=O)OCC(=O)Nc2ccc(F)cc2F)c(C)n1C1CC1`, the cell number change was -5.54%.
On to `O=C(O)CCCCC1SCC2NC(=O)NC21` (configuration not stated), for which, under setting [2], the AC50 is 6.51 µM [falling, full curve].
Take `CCOC(=O)C1C(=O)N(C)C2(C)CC1c1ccccc1O2` (configuration not stated): the cell number change is 7.6%. Also, the AC50 under setting [1] was 20.6 µM [falling, partial curve, poor fit].
As to `CCOC(=O)C1(CCOc2ccccc2)CCN(Cc2cccc(O)c2)CC1`, the cell number change is -0.676%. Further, under setting [1], the half-maximal activity concentration (AC50) was 11.6 µM [falling, single point].
On to `COc1ccc(C(=O)CC2(CC(=O)c3ccc(OC)cc3)C(=O)N(C)C(=O)N(C)C2=O)cc1`, for which the cell number change was determined as 20.9%. Also, under setting [1], the AC50 is 6.51 µM [falling, partial curve].
`Cc1nn(Cc2ccc(Cl)cc2Cl)c(Cl)c1C(=O)Nc1ccc(OC(F)F)cc1`: the cell number change is -40.4%. In addition, the AC50 under setting [2] is 32.6 µM [falling, single point]. In addition, the AC50 under setting [1] was 0.116 µM [rising, full curve, poor fit].
For `COC(=O)c1ccc(N2C(=O)CC(N3CCC(n4c(=O)[nH]c5ccccc54)CC3)C2=O)cc1` (configuration not stated), the cell number change is -19.7%. Also, the AC50 under setting [1] was 0.517 µM [rising, single point].
As for `C/C=C1/C[C@@H](C)[C@](O)(CO)C(=O)OCC2=CCN3CC[C@@H](OC1=O)[C@@H]23`, the cell number change amounted to 36.6%. Besides, the AC50 under setting [1] was 29.1 µM [rising, single point].
`COc1ccc(OCC(=O)N2CCCC(N3CCN(c4ccccc4C)CC3)C2)cc1` (configuration not stated): the cell number change turned out to be 21.5%. Besides, under setting [2], the AC50 was 0.411 µM [rising, full curve]. Besides, the AC50 under setting [1] is 6.51 µM [rising, single point].
Consider `O=c1[nH]c(=O)n(-c2cccc(F)c2)c(O)c1/C=C1\C=Nc2ccccc21`, for which the cell number change was found to be 18.1%.
